Measurements published in publication PMC9868778 (Planta Medica, 2022).

How the values were obtained:
[1] = Fraction unbound in placental homogenate; format: in vitro ADME; conditions: human, placental homogenate (5-fold diluted in PBS)
[2] = Stability of compounds in PBS, perfusion medium and placental homogenate; format: in vitro ADME, human; conditions: 360 min

## CN1C(=O)CN=C(c2ccccc2)c2cc(Cl)ccc21 [diazepam]
[1]
  fraction unbound at 240 min, 2 µM: 0.09 ± 0.007
[2]; 4 °C and 37 °C
  stability in PBS: slightly less stable
[2]; Donor 2, 37 °C
  stability in placental homogenate (degradation observed): 68.3%
[2]; Donor 3, 37 °C
  stability in placental homogenate (degradation observed): 73.3%
After 360 min, antipyrine from control perfusions
  fetal-maternal concentration ratio (FM ratio): 0.98
human, pH 7.3
  F perfusate (% found): 7.9%
